Test results taken from the supplement of paper PMC10849652.
This is one part of the list.

Chains of the proteins cited; added tags and fusions are not shown. Lines headed by an entry give the natural chain unless they say otherwise; changes in a name come on top.
UniProt P53367: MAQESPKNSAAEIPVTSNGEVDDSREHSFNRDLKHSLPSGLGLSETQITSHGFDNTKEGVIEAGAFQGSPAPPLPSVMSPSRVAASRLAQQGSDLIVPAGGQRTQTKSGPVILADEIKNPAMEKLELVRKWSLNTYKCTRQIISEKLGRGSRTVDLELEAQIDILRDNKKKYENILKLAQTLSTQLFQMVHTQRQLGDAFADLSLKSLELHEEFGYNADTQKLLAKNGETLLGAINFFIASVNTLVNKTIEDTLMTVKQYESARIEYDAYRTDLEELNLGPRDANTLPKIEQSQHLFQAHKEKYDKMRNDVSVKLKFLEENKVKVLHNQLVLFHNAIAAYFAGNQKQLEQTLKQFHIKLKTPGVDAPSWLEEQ
UniProt P07355, whole entry, looked up: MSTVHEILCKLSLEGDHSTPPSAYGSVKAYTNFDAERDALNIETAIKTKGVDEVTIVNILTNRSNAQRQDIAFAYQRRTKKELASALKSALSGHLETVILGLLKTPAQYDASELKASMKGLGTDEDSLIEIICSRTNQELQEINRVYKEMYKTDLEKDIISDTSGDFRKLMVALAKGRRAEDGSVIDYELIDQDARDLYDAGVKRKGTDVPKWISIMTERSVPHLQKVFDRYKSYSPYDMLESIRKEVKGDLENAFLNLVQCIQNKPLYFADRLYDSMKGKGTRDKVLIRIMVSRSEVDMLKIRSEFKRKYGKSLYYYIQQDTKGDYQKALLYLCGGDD
UniProt Q9Y2T2: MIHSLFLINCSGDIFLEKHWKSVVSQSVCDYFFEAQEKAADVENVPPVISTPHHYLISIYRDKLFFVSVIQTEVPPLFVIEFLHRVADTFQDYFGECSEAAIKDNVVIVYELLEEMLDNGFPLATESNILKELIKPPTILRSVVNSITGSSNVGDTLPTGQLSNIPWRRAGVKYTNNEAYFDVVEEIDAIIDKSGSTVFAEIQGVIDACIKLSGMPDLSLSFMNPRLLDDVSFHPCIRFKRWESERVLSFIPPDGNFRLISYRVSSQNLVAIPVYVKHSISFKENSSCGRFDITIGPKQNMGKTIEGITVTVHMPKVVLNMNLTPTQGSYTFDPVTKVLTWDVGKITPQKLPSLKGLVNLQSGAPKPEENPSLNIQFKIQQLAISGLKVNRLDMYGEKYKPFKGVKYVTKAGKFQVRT
UniProt Q92888: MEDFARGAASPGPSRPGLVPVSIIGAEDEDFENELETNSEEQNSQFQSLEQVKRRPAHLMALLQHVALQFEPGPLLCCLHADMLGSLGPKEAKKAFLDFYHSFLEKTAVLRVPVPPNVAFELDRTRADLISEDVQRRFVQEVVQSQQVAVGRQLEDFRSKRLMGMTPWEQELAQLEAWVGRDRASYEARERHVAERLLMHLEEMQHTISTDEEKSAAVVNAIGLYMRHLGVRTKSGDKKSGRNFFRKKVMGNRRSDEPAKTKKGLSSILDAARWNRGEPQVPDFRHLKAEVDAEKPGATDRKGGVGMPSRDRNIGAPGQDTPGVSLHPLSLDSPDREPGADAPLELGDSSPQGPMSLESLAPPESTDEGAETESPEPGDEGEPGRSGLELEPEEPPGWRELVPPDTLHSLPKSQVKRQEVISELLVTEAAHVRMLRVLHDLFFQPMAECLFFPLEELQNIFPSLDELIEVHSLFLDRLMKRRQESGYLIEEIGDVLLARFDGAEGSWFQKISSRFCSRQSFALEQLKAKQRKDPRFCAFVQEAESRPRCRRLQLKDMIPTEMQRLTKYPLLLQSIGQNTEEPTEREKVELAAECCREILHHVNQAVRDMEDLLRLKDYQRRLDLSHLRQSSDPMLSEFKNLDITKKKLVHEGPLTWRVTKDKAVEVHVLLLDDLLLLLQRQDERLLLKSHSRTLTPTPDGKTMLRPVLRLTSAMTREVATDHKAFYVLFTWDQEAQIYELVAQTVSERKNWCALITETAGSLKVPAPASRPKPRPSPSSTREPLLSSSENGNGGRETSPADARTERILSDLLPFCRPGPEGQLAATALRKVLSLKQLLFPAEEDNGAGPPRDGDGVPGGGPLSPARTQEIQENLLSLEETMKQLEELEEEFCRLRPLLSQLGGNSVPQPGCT
UniProt P52565: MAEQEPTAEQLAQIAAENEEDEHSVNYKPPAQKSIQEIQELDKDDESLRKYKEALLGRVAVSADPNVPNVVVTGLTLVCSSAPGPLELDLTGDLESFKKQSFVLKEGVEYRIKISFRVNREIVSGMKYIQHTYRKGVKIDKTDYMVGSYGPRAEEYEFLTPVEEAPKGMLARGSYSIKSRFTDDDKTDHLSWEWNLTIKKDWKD
UniProt Q9P2R3: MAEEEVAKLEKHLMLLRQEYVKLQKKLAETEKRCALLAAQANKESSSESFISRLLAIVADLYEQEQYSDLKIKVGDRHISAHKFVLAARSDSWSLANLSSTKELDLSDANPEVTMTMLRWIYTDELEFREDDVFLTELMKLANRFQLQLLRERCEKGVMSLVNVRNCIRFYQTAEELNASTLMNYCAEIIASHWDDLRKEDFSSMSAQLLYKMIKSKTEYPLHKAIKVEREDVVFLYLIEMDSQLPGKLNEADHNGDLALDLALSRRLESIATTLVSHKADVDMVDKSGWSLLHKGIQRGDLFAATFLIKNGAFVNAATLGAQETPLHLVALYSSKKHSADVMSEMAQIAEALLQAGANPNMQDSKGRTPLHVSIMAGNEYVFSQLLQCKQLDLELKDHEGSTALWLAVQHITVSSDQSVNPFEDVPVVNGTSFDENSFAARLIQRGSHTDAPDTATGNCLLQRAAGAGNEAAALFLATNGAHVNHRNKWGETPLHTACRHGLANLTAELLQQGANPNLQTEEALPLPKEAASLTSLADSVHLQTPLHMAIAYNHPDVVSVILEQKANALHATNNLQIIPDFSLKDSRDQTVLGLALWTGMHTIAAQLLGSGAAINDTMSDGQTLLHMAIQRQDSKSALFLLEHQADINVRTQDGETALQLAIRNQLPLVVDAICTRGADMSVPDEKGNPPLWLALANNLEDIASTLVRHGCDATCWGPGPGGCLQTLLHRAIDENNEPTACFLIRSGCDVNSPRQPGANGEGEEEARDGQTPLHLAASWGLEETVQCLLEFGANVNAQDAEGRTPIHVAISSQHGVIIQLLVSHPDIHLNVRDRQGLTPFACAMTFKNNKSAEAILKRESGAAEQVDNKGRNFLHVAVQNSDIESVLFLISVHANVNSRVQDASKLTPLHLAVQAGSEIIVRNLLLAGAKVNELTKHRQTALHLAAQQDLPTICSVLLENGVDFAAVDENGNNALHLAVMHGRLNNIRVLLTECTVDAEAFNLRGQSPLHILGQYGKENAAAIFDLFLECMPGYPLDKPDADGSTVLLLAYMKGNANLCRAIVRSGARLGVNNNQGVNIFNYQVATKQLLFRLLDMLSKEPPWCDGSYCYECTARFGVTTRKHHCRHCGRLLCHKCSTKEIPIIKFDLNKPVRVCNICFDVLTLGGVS
UniProt P09525: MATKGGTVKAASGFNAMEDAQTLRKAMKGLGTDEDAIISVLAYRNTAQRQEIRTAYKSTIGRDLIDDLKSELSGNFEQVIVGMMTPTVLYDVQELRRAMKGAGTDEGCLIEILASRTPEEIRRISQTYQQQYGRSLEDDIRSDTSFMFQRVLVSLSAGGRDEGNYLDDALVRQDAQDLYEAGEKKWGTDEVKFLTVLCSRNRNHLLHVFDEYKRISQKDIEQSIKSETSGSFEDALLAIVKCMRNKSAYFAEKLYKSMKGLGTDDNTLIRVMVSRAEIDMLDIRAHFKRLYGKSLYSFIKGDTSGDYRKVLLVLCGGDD
UniProt P53680: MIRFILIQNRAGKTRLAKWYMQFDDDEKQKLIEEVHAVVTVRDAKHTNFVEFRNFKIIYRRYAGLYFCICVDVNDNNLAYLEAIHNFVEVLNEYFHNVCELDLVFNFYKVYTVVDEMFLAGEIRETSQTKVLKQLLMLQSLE
UniProt Q07960: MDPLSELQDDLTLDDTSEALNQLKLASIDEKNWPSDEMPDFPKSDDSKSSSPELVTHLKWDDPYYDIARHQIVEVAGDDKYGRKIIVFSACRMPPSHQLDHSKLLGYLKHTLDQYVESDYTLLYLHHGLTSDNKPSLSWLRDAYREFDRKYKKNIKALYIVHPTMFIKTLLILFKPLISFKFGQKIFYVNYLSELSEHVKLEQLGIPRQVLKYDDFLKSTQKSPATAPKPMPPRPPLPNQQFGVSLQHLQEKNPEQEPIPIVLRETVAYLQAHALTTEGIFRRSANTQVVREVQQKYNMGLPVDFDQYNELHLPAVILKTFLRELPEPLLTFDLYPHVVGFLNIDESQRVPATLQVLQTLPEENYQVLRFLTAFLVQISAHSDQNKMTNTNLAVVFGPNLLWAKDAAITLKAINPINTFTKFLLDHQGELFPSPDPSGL
UniProt Q9BXS5: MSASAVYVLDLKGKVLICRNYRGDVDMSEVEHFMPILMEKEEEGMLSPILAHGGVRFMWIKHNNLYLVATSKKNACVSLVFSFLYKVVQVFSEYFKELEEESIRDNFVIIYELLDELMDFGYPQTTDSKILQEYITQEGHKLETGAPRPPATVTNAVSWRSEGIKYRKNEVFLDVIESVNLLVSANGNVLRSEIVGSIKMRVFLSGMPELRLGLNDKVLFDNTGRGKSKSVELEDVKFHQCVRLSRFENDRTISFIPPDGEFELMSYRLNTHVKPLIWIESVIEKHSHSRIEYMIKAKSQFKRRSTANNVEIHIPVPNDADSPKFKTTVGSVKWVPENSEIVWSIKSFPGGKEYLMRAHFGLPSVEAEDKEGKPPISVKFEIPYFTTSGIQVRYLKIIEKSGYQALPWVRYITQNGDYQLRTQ
UniProt P61966: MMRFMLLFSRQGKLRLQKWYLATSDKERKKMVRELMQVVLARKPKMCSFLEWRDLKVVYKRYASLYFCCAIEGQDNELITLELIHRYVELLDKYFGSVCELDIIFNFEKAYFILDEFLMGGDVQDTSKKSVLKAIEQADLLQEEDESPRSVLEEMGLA
UniProt Q9HDC9: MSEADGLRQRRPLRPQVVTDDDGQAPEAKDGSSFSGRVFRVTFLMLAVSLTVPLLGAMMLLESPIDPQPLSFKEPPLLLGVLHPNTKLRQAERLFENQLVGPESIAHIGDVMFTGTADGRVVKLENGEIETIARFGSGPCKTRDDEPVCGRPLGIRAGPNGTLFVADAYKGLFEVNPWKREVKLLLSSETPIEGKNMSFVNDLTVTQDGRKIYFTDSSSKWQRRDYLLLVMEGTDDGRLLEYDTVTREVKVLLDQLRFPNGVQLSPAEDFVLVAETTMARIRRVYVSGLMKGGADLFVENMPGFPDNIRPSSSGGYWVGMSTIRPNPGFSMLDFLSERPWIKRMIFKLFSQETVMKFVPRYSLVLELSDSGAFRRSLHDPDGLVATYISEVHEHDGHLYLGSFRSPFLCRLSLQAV
UniProt P12429: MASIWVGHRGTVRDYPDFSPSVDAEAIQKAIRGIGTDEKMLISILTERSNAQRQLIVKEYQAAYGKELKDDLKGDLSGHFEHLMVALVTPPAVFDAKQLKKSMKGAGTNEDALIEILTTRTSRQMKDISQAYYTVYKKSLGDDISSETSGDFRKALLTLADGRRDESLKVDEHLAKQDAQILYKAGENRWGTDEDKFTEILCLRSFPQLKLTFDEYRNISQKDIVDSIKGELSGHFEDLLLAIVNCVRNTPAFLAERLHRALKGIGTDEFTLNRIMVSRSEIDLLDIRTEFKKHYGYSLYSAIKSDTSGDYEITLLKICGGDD
UniProt P58335, whole entry, looked up: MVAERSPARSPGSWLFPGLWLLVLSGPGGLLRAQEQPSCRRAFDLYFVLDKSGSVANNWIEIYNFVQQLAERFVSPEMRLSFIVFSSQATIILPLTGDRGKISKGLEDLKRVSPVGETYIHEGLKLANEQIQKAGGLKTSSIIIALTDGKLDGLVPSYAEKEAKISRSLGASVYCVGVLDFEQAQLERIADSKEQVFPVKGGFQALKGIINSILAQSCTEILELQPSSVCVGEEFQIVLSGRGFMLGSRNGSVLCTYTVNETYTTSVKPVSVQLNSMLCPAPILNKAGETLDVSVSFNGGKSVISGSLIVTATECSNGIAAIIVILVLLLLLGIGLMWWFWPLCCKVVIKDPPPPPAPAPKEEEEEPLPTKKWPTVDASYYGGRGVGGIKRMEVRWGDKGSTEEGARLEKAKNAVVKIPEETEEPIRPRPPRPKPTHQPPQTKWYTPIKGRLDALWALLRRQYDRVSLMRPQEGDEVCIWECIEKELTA
UniProt O95445: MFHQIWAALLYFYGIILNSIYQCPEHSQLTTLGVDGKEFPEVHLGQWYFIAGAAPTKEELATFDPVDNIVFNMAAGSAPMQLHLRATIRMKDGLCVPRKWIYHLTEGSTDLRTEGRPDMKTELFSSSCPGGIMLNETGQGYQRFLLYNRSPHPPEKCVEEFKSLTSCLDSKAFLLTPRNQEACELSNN

What was measured:
Experiment in all cases: log2 fold change, soluble protein after heating vs DMSO (PISA); higher = thermal stabilisation; K562 cells, 10 uM, 30 min; active = over 0.2 and 3.5 SD of the protein, either way, in both replicates (recomputed)
[1] = compound: CC1=C(C=C(C=C1)NC(=O)C2=CC(=CC=C2)C(C)(C)C#N)NC3=CC4=C(C=C3)N=CN(C4=O)C
Method in brief: (§1)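 Values are thermal stability changes relative to control samples and are taken from duplicates. They are stated as log2 fold changes. Before quantification by TMTpro 16plex LC-MS/MS with equalised channel sums, K562 cells at 2×10^6 cells/mL were treated with 10 μM compound for 30 min, heated in aliquots for 3 min across 48°C-58°C, pooled, extracted in PBS with 0.5% NP-40 at 4°C, and centrifuged at 21,000xg for 90 min to give the soluble supernatant.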

[2] = compound: CC1=C(C=C(C=C1)NC(=O)C2=CC(=CC=C2)N(C)C)NC(=O)C3=CC=C(C=C3)O
Method in brief: as §1

[3] = compound: CC1=CC=C(C=C1)SC2=C3C=C(SC3=CN=C2)C(=O)N
Method in brief: as §1

[4] = compound: CC1=NC(=CC=C1)C2=C(N=C(N2)C(C)(C)C)C3=CC4=NC=CN=C4C=C3
Method in brief: as §1

Nexturastat A = compound: CCCCN(Cc1ccc(C(=O)NO)cc1)C(=O)Nc1ccccc1 [Nexturastat A]
Method in brief: as §1

vemurafenib = compound: CCCS(=O)(=O)Nc1ccc(F)c(C(=O)c2c[nH]c3ncc(-c4ccc(Cl)cc4)cc23)c1F [vemurafenib]
Method in brief: as §1

[5] = compound: CCCS(=O)(=O)Nc1ccc(F)c(C(=O)c2c[nH]c3ncc(Cl)cc23)c1F
Method in brief: as §1

[6] = compound: CCCc1cc(C)[nH]c(=O)c1CNC(=O)c1cc(-c2ccnc(N3CCN(C)CC3)c2)cc2c1cnn2C(C)C
Method in brief: as §1

givinostat = compound: CCN(CC)Cc1ccc2cc(COC(=O)Nc3ccc(C(=O)NO)cc3)ccc2c1 [givinostat]
Method in brief: as §1

barasertib = compound: CCN(CCCOc1ccc2c(Nc3cc(CC(=O)Nc4cccc(F)c4)[nH]n3)ncnc2c1)CCOP(=O)(O)O [barasertib]
Method in brief: as §1

[7] = compound: CC[C@@H]1C(=O)N(C)c2cnc(Nc3ccc(C(=O)NC4CCN(C)CC4)cc3OC)nc2N1C1CCCC1
Method in brief: as §1

volasertib = compound: CC[C@@H]1C(=O)N(C)c2cnc(Nc3ccc(C(=O)N[C@H]4CC[C@H](N5CCN(CC6CC6)CC5)CC4)cc3OC)nc2N1C(C)C [volasertib]
Method in brief: as §1

[8] = compound: CC[C@H](C)N1C=C(C2=C(C=C(C=C21)C3=CN=C(C=C3)N4CCNCC4)C(=O)NCC5=C(C=C(NC5=O)C)C)C
Method in brief: as §1

epoxomicin = compound: CC[C@H](C)[C@@H](C(=O)N[C@@H]([C@@H](C)O)C(=O)N[C@@H](CC(C)C)C(=O)[C@]1(CO1)C)NC(=O)[C@H]([C@@H](C)CC)N(C)C(=O)C [epoxomicin]
Method in brief: as §1

[9] = compound: CCn1cc(-c2ccnc3[nH]c(-c4cccc(CN(C)C)c4)cc23)c(-c2ccc(NC(=O)N(C)C)cc2)n1
Method in brief: as §1

[10] = compound: CN(C)CC(=O)Nc1ccc2[nH]c(=O)c3ccccc3c2c1
Method in brief: as §1

[11] = compound: CN1C2=C(C3=C1C(=O)N(N=C3)CC4=CC(=CC=C4)N)SC(=C2)S(=O)C
Method in brief: as §1

[12] = compound: CN1CCC(CNc2ccc3ncc(-c4cccc(OC(F)(F)F)c4)n3n2)CC1
Method in brief: as §1

[13] = compound: CCn1c(C(=O)N(C2CC2)C2CC2)cc2c3c(ncn3C)c(Nc3cc(C)n(C)n3)nc21
Method in brief: as §1

rosiglitazone = compound: CN(CCOC1=CC=C(C=C1)C[C@H]2C(=O)NC(=O)S2)C3=CC=CC=N3 (racemic) [rosiglitazone]
Method in brief: as §1

Measured: log2 fold change

ARFIP1 (UniProt P53367)
inactive: [1] -0.031 | [2] 0.042 | [3] 0.022 | [4] -0.006 | Nexturastat A -0.081 | vemurafenib -0.026 | [5] 0.084 | [6] 0.045 | givinostat 0.058 | barasertib 0.046 | [7] -0.008 | volasertib -0.184 | [8] 0.113 | epoxomicin -0.003 | [9] 0.083 | [10] -0.011 | [11] -0.053 | [12] -0.421

ANXA2 isoform 2 (UniProt P07355)
inactive: [1] 0.088 | [2] -0.021 | [3] -0.025 | [4] 0.076 | Nexturastat A -0.086 | vemurafenib 0.044 | [5] 0.022 | [6] 0.013 | givinostat -0.027 | barasertib 0.008 | [7] -0.029 | volasertib -0.012 | [8] 0.065 | epoxomicin 0.039 | [13] 0.019 | [9] -0.052 | [10] 0.008 | rosiglitazone 0.017 | [11] -0.048 | [12] 0.044

AP3M1 (UniProt Q9Y2T2)
inactive: [1] 0.018 | [2] -0.063 | [3] -0.002 | [4] 0.032 | Nexturastat A -0.008 | vemurafenib 0.041 | [5] 0.045 | [6] 0.027 | givinostat 0.038 | barasertib 0.071 | [7] -0.039 | volasertib -0.111 | [8] 0.041 | epoxomicin 0.016 | [13] -0.026 | [9] -0.018 | [10] 0.054 | rosiglitazone 0.071 | [11] -0.007 | [12] -0.06

ARHGEF1 isoform 3 (UniProt Q92888)
inactive: [1] 0 | [2] -0.023 | [3] 0.008 | [4] -0.014 | Nexturastat A 0.224 | vemurafenib 0.089 | [5] 0.042 | [6] 0.045 | givinostat 0.124 | barasertib 0.047 | [7] -0.063 | volasertib -0.276 | [8] -0.006 | epoxomicin -0.029 | [13] -0.144 | [9] 0.078 | [10] 0.046 | rosiglitazone 0.076 | [11] 0.13 | [12] -0.023

ARHGDIA (UniProt P52565)
inactive: [1] 0.01 | [2] 0.016 | [3] -0.019 | [4] -0.012 | Nexturastat A -0.006 | vemurafenib 0.026 | [5] 0.069 | [6] 0.083 | givinostat -0.002 | barasertib 0.031 | [7] -0.014 | volasertib -0.024 | [8] 0.027 | epoxomicin 0.023 | [13] -0.001 | [9] -0.003 | [10] 0.079 | rosiglitazone 0.024 | [11] -0.06 | [12] -0.004

ARHGEF2 (UniProt Q92974)
inactive: [1] 0.004 | [2] -0.022 | [3] 0.062 | [4] -0.07 | Nexturastat A 0.476 | vemurafenib -0.024 | [5] 0.029 | [6] 0.186 | givinostat 0.164 | barasertib 0.013 | [7] 0.125 | volasertib -0.042 | [8] 0.133 | epoxomicin -0.304 | [13] -0.055 | [9] 0.162 | [10] 0.045 | rosiglitazone -0.052 | [11] 0.469 | [12] 0.071

ANKFY1 isoform 4 (UniProt Q9P2R3)
inactive: [1] -0.105 | [2] 0 | [3] -0.007 | [4] 0.09 | Nexturastat A 0.297 | vemurafenib -0.065 | [5] 0.134 | [6] 0.153 | givinostat 0.067 | barasertib -0.012 | [7] 0.084 | volasertib -0.391 | [8] 0.121 | epoxomicin -0.06 | [13] -0.351 | [9] -0.246 | [10] -0.004 | rosiglitazone 0.023 | [12] 0.08

ANXA4 (UniProt P09525)
inactive: [1] -0.023 | [2] -0.031 | [3] -0.017 | [4] -0.026 | Nexturastat A -0.016 | vemurafenib 0.062 | [5] 0.051 | [6] 0.019 | givinostat 0.045 | barasertib 0.047 | [7] -0.053 | volasertib -0.053 | [8] 0.053 | epoxomicin 0.024 | [13] -0.079 | [9] 0.002 | [10] 0.058 | rosiglitazone 0.039 | [11] 0.094 | [12] -0.146

AP2S1 (UniProt P53680)
inactive: [1] 0.009 | [2] -0.028 | [3] -0.036 | [4] 0.037 | Nexturastat A -0.038 | vemurafenib 0.002 | [5] 0.03 | [6] 0.007 | givinostat -0.015 | barasertib -0.034 | [7] 0.035 | volasertib 0.018 | [8] -0.024 | epoxomicin -0.022 | [9] -0.008 | [10] -0.071 | [11] -0.005 | [12] 0.037

ARHGAP1 (UniProt Q07960)
inactive: [1] -0.024 | [2] -0.022 | [3] -0.009 | [4] 0.012 | Nexturastat A 0.03 | vemurafenib 0.002 | [5] 0.052 | [6] -0.018 | givinostat -0.014 | barasertib 0.006 | [7] 0.014 | volasertib -0.027 | [8] 0.021 | epoxomicin 0.013 | [9] -0.082 | [10] -0.007 | [11] -0.014 | [12] 0.19

Taken from above (3 entries):
ANKFY1 isoform 4 (UniProt Q9P2R3)
inactive: [1] -0.105 | [2] 0 | [3] -0.007 | [4] 0.09 | Nexturastat A 0.297 | vemurafenib -0.065 | [5] 0.134 | [6] 0.153 | givinostat 0.067 | barasertib -0.012 | [7] 0.084 | volasertib -0.391 | [8] 0.121 | epoxomicin -0.06 | [13] -0.351 | [9] -0.246 | [10] -0.004 | rosiglitazone 0.023 | [12] 0.08

ANXA4 (UniProt P09525)
inactive: [1] -0.023 | [2] -0.031 | [3] -0.017 | [4] -0.026 | Nexturastat A -0.016 | vemurafenib 0.062 | [5] 0.051 | [6] 0.019 | givinostat 0.045 | barasertib 0.047 | [7] -0.053 | volasertib -0.053 | [8] 0.053 | epoxomicin 0.024 | [13] -0.079 | [9] 0.002 | [10] 0.058 | rosiglitazone 0.039 | [11] 0.094 | [12] -0.146

AP2S1 (UniProt P53680)
inactive: [1] 0.009 | [2] -0.028 | [3] -0.036 | [4] 0.037 | Nexturastat A -0.038 | vemurafenib 0.002 | [5] 0.03 | [6] 0.007 | givinostat -0.015 | barasertib -0.034 | [7] 0.035 | volasertib 0.018 | [8] -0.024 | epoxomicin -0.022 | [9] -0.008 | [10] -0.071 | [11] -0.005 | [12] 0.037

(further entries)

AP1M1 (UniProt Q9BXS5)
inactive: [1] 0.02 | [2] -0.037 | [3] -0.008 | [4] -0.003 | Nexturastat A 0.065 | vemurafenib 0.005 | [5] 0.019 | [6] 0.04 | givinostat 0.022 | barasertib 0.02 | [7] -0.008 | volasertib -0.121 | [8] 0.013 | epoxomicin -0.034 | [13] -0.001 | [9] -0.004 | [10] 0.011 | rosiglitazone -0.004 | [11] -0.01 | [12] -0.034

AP1S1 (UniProt P61966)
inactive: [1] 0.054 | [2] -0.021 | [3] 0.013 | [4] -0.004 | Nexturastat A -0.068 | vemurafenib 0.024 | [5] 0.104 | [6] 0.065 | givinostat -0.003 | barasertib 0.04 | [7] -0.014 | volasertib -0.175 | [8] 0.016 | epoxomicin -0.025 | [13] -0.042 | [9] 0.03 | [10] 0.029 | rosiglitazone 0.064 | [11] -0.054 | [12] -0.046

APMAP (UniProt Q9HDC9)
inactive: [1] 0.002 | [2] 0.018 | [3] 0.017 | [4] 0 | Nexturastat A -0.06 | vemurafenib -0.029 | [5] -0.01 | [6] -0.059 | givinostat -0.029 | barasertib 0.002 | [7] 0.023 | volasertib 0.025 | [8] -0.082 | epoxomicin 0.02 | [13] -0.016 | [9] -0.002 | [10] -0.034 | rosiglitazone -0.009 | [11] -0.073 | [12] 0.063

ANXA3 (UniProt P12429)
inactive: [1] -0.04 | [2] 0.003 | [3] 0.009 | [4] -0.014 | Nexturastat A -0.059 | vemurafenib 0 | [5] 0.012 | [6] -0.002 | givinostat 0.008 | barasertib 0.032 | [7] -0.002 | volasertib -0.031 | [8] 0.033 | epoxomicin -0.018 | [13] 0.009 | [9] -0.012 | [10] -0.021 | rosiglitazone 0.036 | [11] -0.039 | [12] -0.011

ANTXR2 isoform 4 (UniProt P58335)
inactive: [1] -0.01 | [2] 0.029 | [3] 0.028 | [4] -0.004 | Nexturastat A -0.059 | vemurafenib -0.014 | [5] -0.006 | [6] -0.02 | givinostat 0.016 | barasertib -0.022 | [7] -0.052 | volasertib -0.045 | [8] -0.006 | epoxomicin 0.004 | [13] 0.02 | [9] -0.034 | [10] -0.028 | rosiglitazone -0.016 | [11] -0.024 | [12] 0.006

APOM (UniProt O95445)
inactive: [1] 0.02 | [2] 0.282 | [3] -0.111 | [4] 0.029 | Nexturastat A -0.032 | vemurafenib -0.032 | [5] -0.047 | [6] 0.097 | givinostat -0.134 | barasertib -0.139 | [7] 0.083 | volasertib 0.22 | epoxomicin -0.193 | [13] 0.069 | [9] 0.031 | [10] -0.116 | rosiglitazone 0.181 | [11] 0.139 | [12] 0.038
